For experiment [1], the target named is T1, Alb3CΔIII-His (aa 350–462 lacking aa 386–403) (UniProt Q8LBP4).
T1 sequence: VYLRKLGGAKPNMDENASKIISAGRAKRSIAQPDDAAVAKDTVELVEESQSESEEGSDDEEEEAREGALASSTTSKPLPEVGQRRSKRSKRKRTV
In words: condition: 1.5 mM His-STIC2 titrated into 0.15 mM Alb3CΔIII-His; ITC; His-STIC2 titrated (1.5 mM into 0.15 mM Alb3C-His or Alb3CΔIII-His; 1 mM into 0.1 mM Alb4C-His or Alb4CΔIII-His); 20 mM HEPES, 150 mM NaCl, pH 8.0, 25 °C; one-site binding model; two to five independent experiments; both purified.

The target in experiment [2] is T2, Alb4CΔIII-His (aa 334–499 lacking aa 397–414) (UniProt Q9FYL3).
T2 sequence: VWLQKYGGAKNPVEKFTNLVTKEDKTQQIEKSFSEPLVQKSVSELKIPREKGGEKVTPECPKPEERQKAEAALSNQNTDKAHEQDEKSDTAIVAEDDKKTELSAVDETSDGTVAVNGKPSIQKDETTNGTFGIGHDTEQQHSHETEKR
Briefly: condition: 1 mM His-STIC2 titrated into 0.1 mM Alb4CΔIII-His; ITC; His-STIC2 titrated (1.5 mM into 0.15 mM Alb3C-His or Alb3CΔIII-His; 1 mM into 0.1 mM Alb4C-His or Alb4CΔIII-His); 20 mM HEPES, 150 mM NaCl, pH 8.0, 25 °C; one-site binding model; two to five independent experiments; both purified.

No constants are given. Whether binding was seen depends on the method and setting. Where a sequence is shown, tags or fusion partners need not be part of it.

The values that follow come from article PMC11480477, “STIC2 selectively binds ribosome-nascent chain complexes in the cotranslational sorting of Arabidopsis thylakoid proteins” (The EMBO Journal, 2024).

B1: His-STIC2 (mature STIC2, aa 49–182) (natural protein, A. thaliana, UniProt O82230 49-182, looked up)
chain: VNGLFGGGNKDNNSEDGQSKAGIFGNMQNMYETVKKAQMVVQVEAVRVQKELAAAEFDGYCAGELVKVTLSGNQQPIRTDITEAAMELGSEKLSQLVTEAYKDAHAKSVVAMKERMSDLAQSLGMPPGLSEGMK
notes: STIC2 of A. thaliana, mature protein aa 49–182 (transit peptide predicted with TargetP), in pET-Duet1; The N-terminal place of the tag is read from the printed name His-STIC2; also called recombinant mature His-STIC2; suppressor of tic40 protein 2; source: E. coli Rosetta2 (DE3) or BL21 (DE3), purified (HisTrap HP, native conditions); not shown: His tag, N-terminal, kept
Take B1: the binding entry in experiment [1] and in experiment [2] was “no binding” throughout.
